No constants are given. Whether binding was seen depends on the method and setting. Binding seen in cells or lysates may run through a third protein. For some of these results: Sequences can lack the tags named with a protein.
Tests used:
Experiment in all cases: pull-down; T7-Irc22 co-expressed with GST fusions in wild-type yeast; cell extracts incubated with glutathione-Sepharose 4B in lysis buffer (20 mM HEPES pH 7.5, 100 mM NaCl, 0.5% Nonidet P-40, 1 mM EDTA) for 1 h at 4 °C, three washes; immunoblot with anti-T7
[1] = target: Dsk2 UBA domain alone (328-373) (S. cerevisiae) (UniProt P48510)
[2] = target: T1, Dsk2 middle stretch alone (78-335) (S. cerevisiae) (UniProt P48510)
T1 sequence: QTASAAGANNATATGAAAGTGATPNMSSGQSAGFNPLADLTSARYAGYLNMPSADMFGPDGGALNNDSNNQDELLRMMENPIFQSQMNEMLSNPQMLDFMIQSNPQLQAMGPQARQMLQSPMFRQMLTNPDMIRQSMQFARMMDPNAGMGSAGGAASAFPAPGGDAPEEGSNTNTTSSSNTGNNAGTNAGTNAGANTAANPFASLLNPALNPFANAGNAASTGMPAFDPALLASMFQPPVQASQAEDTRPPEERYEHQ

[3] = target: T2, GST-Ddi1, expressed in yeast (S. cerevisiae) (UniProt P40087)
T2 sequence: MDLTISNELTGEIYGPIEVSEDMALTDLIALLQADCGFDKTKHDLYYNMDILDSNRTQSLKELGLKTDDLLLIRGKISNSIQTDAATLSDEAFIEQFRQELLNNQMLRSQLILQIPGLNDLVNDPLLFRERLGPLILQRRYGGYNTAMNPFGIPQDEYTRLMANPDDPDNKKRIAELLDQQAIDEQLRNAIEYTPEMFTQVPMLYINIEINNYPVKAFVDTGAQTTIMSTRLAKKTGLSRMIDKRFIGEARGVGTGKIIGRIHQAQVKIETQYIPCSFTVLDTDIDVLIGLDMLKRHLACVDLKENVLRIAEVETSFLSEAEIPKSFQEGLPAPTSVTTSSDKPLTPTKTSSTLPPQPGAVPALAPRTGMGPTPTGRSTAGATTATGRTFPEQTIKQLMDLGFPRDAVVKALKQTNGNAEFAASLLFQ

[4] = target: T3, GST-Rad23, expressed in yeast (S. cerevisiae) (UniProt P32628)
T3 sequence: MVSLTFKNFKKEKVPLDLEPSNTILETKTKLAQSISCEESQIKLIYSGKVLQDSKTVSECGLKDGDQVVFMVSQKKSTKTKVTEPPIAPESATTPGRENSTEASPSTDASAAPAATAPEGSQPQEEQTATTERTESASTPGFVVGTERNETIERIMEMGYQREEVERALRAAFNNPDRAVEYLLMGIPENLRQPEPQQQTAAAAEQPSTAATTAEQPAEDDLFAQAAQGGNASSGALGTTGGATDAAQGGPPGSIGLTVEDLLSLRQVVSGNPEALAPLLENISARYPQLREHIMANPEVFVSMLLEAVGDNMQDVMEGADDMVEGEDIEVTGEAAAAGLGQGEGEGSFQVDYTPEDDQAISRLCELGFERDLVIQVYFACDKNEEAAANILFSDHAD

Measured: binding

B1: T7-Irc22 (protein, UniProt P40006 25-225)
chain: NNSDNVEHEQEVAEAVAPPSINIEVKYDVVGKESENHDSFLEFYAEDTATLAYNVTNWEDTNITIFGVNGTIVTYPHGYPVADITGASIGPYEMEVNGTSKFGQDVTLNLPEGQYFLIPFLLASRFDEIVRIAAPPTLFEIVSPPISFFNPQFLSVQVIFLAIIGGVSYYYMKSKTNQRPSKKSATVKKVDESWLPETYKK
no binding: all assays above

— paper PMC4092868
